According to patent US10662182B2, “Microbiocidal thiazole derivatives” (SYNGENTA PARTICIPATIONS AG, priority 2016, dated 2020):
Some entries share one result that the patent states for a list of compounds.

Key:
Alternaria solani = Alternaria solani / tomato / leaf disc (early blight); assay type: in vivo; details: 200 ppm in the formulation; tomato leaf disks cv. Baby; compared to untreated checks
Gaeumannomyces graminis = Gaeumannomyces graminis / liquid culture (take-all of cereals); assay type: cell-based; details: 200 ppm in the formulation, inhibition of growth determined photometrically, compared to untreated control
Method: (§1) Gaeumannomyces graminis/Liquid Culture (Take-All of Cereals) Mycelial fragments of the fungus from cryogenic storage were directly mixed into nutrient broth (PDB potato dextrose broth). After placing a (DMSO) solution of test compound into a microtiter plate (96-well format), the nutrient broth containing the fungal spores is added. The test plates are incubated at 24° C. and the inhibition of growth is determined photometrically 4-5 days after application.

[1] = system: Glomerella lacenarium (Colletotrichum lacenarium); assay: Glomerella lagenarium / liquid culture (anthracnose); assay type: cell-based; details: 200 ppm in the formulation, inhibition of growth measured photometrically, compared to untreated checks
Method: as §1, with “Glomerella lacenarium (Colletotrichum lacenarium)/Liquid” for “Gaeumannomyces graminis/Liquid”, “(Anthracnose) Conidia” for “(Take-All of Cereals) Mycelial fragments”, “are” for “were”, “measured” for “determined”, “3 to 4” for “4-5”

[2] = system: Magnaporthe risea (Pyricularia oryzae); assay type: in vivo; details: 200 ppm in the formulation; rice leaf segments cv. Ballila; compared to untreated checks
[3] = system: Monocraphella nivalis (Microdochium nivale); assay: Monographella nivalis / liquid culture (foot rot cereals); assay type: cell-based; details: 200 ppm in the formulation, inhibition of growth determined photometrically, compared to untreated checks
Method: as §1, with “Monocraphella nivalis (Microdochium nivale)/Liquid” for “Gaeumannomyces graminis/Liquid”, “(Foot Rot” for “(Take-All of”, “Conidia” for “Mycelial fragments”, “are” for “were”

[4] = system: Mycosphaerella raminicola (Septoria tritici); assay: Mycosphaerella graminicola / liquid culture (Septoria blotch); assay type: cell-based; details: 200 ppm in the formulation, inhibition of growth determined photometrically, compared to untreated checks
Method: as §1, with “Mycosphaerella raminicola (Septoria tritici)/Liquid” for “Gaeumannomyces graminis/Liquid”, “(Septoria blotch) Conidia” for “(Take-All of Cereals) Mycelial fragments”, “are” for “were”, “4 to 5” for “4-5”

[5] = system: Puccinia recondita f. Sp. Tritici; assay: Puccinia recondita f. sp. tritici / wheat / leaf disc preventative (brown rust); assay type: in vivo; details: 200 ppm in the formulation; wheat leaf segments cv. Kanzler; compared to untreated checks
[6] = system: Blumeria graminis f. Sp. Tritici (Erysiphe graminis f. Sp. Tritici); assay: Blumeria graminis f. sp. tritici / wheat / leaf disc preventative (powdery mildew on wheat); assay type: in vivo; details: 200 ppm in the formulation; wheat leaf segments cv. Kanzler; compared to untreated checks
Text: Blumeria graminis f. Sp. Tritici (Erysiphe graminis f. Sp. Tritici)/Wheat/Leaf Disc Preventative (Powdery Mildew on Wheat) Wheat leaf segments cv. Kanzler are placed on agar in a multiwell plate (24-well format) and sprayed with the test compound formulated with DMSO and Tween20 and diluted in water. The leaf disks are inoculated by shaking powdery mildew infected plants above the test plates 1 day after application.

[7] = system: Mycosphaerella arachidis (Cercospora arachidicola); assay: Mycosphaerella arachidis / liquid culture (early leaf spot); assay type: cell-based; details: 200 ppm in the formulation, inhibition of growth determined photometrically, compared to untreated checks
Method: as §1, with “Mycosphaerella arachidis (Cercospora arachidicola)/Liquid” for “Gaeumannomyces graminis/Liquid”, “(Early Leaf Spot) Conidia” for “(Take-All of Cereals) Mycelial fragments”, “are” for “were”

Pyrenophora teres = Pyrenophora teres / barley / leaf disc preventative (net blotch); assay type: in vivo; details: 200 ppm of the formulation; barley leaf segments cv. Hasso; compared to untreated checks
Method: Pyrenophora teres/Barley/Leaf Disc Preventative (Net Blotch) Barley leaf segments cv. Hasso are placed on agar in a multiwell plate (24-well format) and sprayed with the test compound formulated with DMSO and Tween20 and diluted in water. The leaf segments are inoculated with a spore suspension of the fungus 2 days after application. The inoculated leaf segments are incubated at 20° C. and 65% rh under a light regime of 12 h light/12 h darkness in a climate cabinet and the activity of a compound is assessed as disease control compared to untreated when an appropriate level of disease damage appears in untreated check leaf segments (5 to 7 days after application).

[8] = system: Botrvotinia fuckeliana (Botrvtis cinerea); assay: Botryotinia fuckeliana / liquid culture (gray mould); assay type: cell-based; details: 200 ppm in the formulation, inhibition of growth determined photometrically, compared to untreated checks
Method: as §1, with “Botrvotinia fuckeliana (Botrvtis cinerea)/Liquid” for “Gaeumannomyces graminis/Liquid”, “(Gray Mould) Conidia” for “(Take-All of Cereals) Mycelial fragments”, “are” for “were”, “(Vogels” for “(PDB potato dextrose”, “3-4” for “4-5”

Measured: disease control

Cc1sc(Nc2cc(F)cc(F)c2)nc1C(=O)NCc1ccc(F)c(F)c1 [I.a.3]
at least 80%: Alternaria solani | Gaeumannomyces graminis | [1] | [2] | [3] | [4] | [5]

Cc1sc(Nc2cc(F)cc(F)c2)nc1C(=O)NCC1(C)CCC1 [I.at.3]
at least 80%: Alternaria solani | [6] | [1] | [2] | [3] | [7] | [4] | [5] | Pyrenophora teres

Cc1sc(Nc2cc(F)cc(F)c2)nc1C(=O)NC1(C2CC2)CC1 [I.au.3]
at least 80%: Alternaria solani | [6] | [8] | [1] | [2] | [3] | [7] | [4] | [5] | Pyrenophora teres

Cc1sc(Nc2cc(F)cc(F)c2)nc1C(=O)NC1C2CCOC2C12CCCC2 (centres unmarked) [I.ac.3]
at least 80%: Alternaria solani | [6] | [8] | Gaeumannomyces graminis | [1] | [2] | [3] | [7] | [4] | [5] | Pyrenophora teres

Cc1sc(Nc2cc(F)cc(F)c2)nc1C(=O)NCC(C)(C)C [I.ao.3]
at least 80%: Alternaria solani | [6] | [1] | [2] | [3] | [7] | [4] | [5] | Pyrenophora teres

Cc1sc(Nc2cc(F)cc(F)c2)nc1C(=O)NC1C2CCOC2C1(C)C (centres unmarked) [I.aa.3]
at least 80%: [6] | [8] | Gaeumannomyces graminis | [1] | [2] | [3] | [7] | [4] | [5] | Pyrenophora teres
